According to patent US20250346644A1:
These are yes or no findings as the source states them, for the method shown. Each block holds one binder with its values, some of them ahead of it.

Chains of the proteins cited; added tags and fusions are not shown. Lines headed by an entry give the natural chain unless they say otherwise; changes in a name come on top.
UniProt P60568: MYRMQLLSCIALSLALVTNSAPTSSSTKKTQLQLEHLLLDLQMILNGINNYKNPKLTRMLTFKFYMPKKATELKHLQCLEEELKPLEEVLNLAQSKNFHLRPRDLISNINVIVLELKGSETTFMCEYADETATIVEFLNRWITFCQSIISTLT

Target: hIL2-his (human) (UniProt P60568)
Test: ELISA (section 2.1.1): antibody (13.3 nM) captured on coated goat anti-human IgG, hIL2-his titrated (the x axis is the antigen concentration), HRP anti-6xHis

binding: no binding (tested: 2 µg/mL)
B1: hS4B6-H1K1 (antibody, V domains shown)
VH: QVQLQESGPGLVKPSETLSLTCTVSGDTITAYYLHWIRQPPGKGLEWIGRIDPEDDSTKYAENFKNRVTISVDTSKNQFSLKLSSVTAADTAVYYCTTVTFYYSRELRWFAYWGQGTTVTVSS
VL: DIVLTQSPGTLSLSPGERATLSCQASQDIGNYLSWYQQKPGQAPRLLIYSATSLADGIPDRFSGSRSGTDYTLTISRLEPEDFAVYYCLQHYSTPYTFGQGTKVEIK

binding: no binding (tested: 2 µg/mL)
B2: S4B6 chimeric antibody (antibody, human IgG1, V domains shown)
VH: EVQLQESGAELVRPGTSVKLSCKVSGDTITAYYLHFVRQRPGQGLEWIGRIDPEDDSTKYAENFKNKATFTADASSNTAYLRLSSLTSEDTATYFCTTVTFYYSRELRWFAYWGQGTLVTVSS
VL: DIQVTQSPASLSASLEEIVTITCQASQDIGNYLSWYQQKLGKSPQLLIHSATSLADGVPSRFSGSRSGTQYSLKINRLQVEDTGIYYCLQHYSTPYTFGAGTKLELK
